Measured values reported in publication PMC5974425.
No constants are given. Whether binding was seen depends on the method and setting. Binding seen in cells or lysates may run through a third protein. Some entries that bind do so weakly or less than the wild type.

By UniProt entry, the sequences of proteins in these tests, tags left out.
UniProt Q12923: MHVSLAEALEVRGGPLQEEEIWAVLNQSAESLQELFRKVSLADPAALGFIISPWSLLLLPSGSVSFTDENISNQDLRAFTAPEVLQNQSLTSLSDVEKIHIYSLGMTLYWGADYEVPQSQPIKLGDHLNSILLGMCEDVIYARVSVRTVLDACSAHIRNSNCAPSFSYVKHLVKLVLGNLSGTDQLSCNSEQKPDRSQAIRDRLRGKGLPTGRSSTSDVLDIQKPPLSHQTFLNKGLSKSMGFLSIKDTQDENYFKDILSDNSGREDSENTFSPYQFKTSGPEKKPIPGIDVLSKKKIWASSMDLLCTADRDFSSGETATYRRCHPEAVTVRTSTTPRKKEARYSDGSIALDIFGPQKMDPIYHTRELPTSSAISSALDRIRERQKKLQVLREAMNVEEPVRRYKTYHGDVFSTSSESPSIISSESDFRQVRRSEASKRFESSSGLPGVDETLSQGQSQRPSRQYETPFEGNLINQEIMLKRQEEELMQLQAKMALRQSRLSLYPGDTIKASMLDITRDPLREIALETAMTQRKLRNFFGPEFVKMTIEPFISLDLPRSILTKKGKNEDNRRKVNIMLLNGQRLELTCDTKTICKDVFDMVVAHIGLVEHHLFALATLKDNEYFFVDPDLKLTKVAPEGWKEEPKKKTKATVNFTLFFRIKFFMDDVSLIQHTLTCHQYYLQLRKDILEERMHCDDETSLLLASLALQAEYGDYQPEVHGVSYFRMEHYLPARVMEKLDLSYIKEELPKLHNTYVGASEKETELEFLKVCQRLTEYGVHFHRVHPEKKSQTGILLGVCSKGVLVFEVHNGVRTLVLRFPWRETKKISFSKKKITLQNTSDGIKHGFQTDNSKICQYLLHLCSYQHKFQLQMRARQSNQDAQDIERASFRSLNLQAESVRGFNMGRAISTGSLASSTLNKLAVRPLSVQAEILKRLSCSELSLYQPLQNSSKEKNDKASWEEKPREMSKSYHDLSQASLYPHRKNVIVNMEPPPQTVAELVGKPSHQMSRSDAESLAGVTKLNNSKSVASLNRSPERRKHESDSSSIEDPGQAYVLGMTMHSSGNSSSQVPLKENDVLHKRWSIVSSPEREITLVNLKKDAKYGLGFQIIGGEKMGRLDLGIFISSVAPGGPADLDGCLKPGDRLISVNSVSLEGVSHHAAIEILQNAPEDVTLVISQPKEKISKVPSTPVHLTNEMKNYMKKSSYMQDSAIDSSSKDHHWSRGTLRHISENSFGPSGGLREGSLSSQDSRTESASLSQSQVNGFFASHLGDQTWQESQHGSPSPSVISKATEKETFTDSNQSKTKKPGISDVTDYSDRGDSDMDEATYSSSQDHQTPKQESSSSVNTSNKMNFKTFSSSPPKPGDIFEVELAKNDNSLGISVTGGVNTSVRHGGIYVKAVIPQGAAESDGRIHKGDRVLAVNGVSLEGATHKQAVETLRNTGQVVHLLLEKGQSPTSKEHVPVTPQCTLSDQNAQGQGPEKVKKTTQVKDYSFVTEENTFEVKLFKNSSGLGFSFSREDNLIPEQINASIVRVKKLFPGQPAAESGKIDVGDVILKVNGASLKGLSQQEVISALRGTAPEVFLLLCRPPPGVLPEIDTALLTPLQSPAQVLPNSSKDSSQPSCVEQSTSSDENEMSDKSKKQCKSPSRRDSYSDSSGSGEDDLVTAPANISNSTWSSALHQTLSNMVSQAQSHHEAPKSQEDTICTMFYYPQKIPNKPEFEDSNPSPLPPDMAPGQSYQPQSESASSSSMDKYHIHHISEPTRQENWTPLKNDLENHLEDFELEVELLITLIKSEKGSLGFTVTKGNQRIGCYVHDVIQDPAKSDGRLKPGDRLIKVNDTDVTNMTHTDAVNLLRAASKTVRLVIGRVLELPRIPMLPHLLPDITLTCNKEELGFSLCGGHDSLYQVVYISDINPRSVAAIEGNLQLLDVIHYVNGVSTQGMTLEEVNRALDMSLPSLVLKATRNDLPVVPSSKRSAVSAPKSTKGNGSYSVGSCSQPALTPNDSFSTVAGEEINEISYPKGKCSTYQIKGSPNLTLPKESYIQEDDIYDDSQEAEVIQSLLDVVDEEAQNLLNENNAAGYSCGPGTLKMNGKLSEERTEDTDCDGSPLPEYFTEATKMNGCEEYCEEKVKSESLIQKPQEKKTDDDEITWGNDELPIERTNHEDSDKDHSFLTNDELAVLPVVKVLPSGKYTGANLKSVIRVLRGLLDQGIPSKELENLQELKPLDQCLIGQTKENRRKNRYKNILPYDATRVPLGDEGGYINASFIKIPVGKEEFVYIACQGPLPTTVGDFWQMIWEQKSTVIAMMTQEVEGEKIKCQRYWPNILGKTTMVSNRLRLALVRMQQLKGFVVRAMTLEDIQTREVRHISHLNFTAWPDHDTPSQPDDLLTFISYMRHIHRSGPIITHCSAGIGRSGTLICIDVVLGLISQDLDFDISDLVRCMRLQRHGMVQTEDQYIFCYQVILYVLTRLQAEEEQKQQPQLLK
UniProt Q16513: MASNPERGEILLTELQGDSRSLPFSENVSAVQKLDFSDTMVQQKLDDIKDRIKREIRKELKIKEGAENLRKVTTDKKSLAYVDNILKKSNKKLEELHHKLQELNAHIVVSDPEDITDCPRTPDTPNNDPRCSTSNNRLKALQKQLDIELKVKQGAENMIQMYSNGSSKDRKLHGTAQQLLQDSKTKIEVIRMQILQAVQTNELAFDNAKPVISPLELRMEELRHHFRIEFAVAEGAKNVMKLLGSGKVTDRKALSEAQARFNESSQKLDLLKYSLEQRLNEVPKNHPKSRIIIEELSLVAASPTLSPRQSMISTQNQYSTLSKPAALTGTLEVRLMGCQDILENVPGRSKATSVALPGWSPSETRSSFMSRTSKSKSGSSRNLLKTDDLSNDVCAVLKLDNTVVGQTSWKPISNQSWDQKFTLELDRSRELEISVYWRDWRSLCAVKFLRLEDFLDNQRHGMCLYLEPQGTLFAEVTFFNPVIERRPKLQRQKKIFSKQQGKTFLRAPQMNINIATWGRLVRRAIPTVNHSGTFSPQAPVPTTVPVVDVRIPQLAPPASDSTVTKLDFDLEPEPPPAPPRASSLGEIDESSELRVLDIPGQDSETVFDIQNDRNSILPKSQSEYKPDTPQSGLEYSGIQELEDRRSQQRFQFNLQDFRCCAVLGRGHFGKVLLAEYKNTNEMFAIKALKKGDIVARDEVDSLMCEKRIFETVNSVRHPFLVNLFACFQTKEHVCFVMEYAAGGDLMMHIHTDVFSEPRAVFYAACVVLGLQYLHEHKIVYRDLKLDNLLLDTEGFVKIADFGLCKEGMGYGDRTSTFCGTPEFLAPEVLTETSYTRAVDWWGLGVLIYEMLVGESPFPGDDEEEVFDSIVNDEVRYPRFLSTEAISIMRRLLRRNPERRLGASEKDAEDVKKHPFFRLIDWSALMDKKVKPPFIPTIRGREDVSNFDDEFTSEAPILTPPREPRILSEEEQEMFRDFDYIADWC

Target: GFP-PTPL1 wt (UniProt Q12923)
Assay: co-IP; transfected HEK293T cells lysed in 1% Triton X-100, 50 mM Tris-HCl pH 7.5, 150 mM NaCl, 5 mM MgCl2; cleared lysates on agarose beads coupled to GFP binding protein, 1 h at 4°C; the GFP- or YFP-tagged protein is the bait; Western blot

- binding: binds
Substance: Flag-PKN2 (from UniProt Q16513 1-984)
